PubChem BioAssay AID504764, Drosophila RNAi Screening Center | 2011
Aim: 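Knock-downs that raise or lower a Notch target reporter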 (primary screen). Cells: Drosophila Kc167 cells. Reagent: long dsRNA against Drosophila genes. Timing: about 5 days (4 days dsRNA, then 24 h after transfection). Conditions: transfection of constitutively active membrane-tethered Notch lacking the extracellular domain, read 24 h later. Measured: 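Light from a Notch-responsive E(spl)m3 luciferase reporter under active Notch, with control-promoter and no-Notch reporter wells to normalise; raw counts from paired wells a and b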. Direction: induced reporter light, run 1, well a and induced reporter light, run 1, well b: higher = more light from the Notch target reporter with active Notch; control promoter light, run 1, well a and control promoter light, run 1, well b: higher = more light from the viral control promoter (cell number, transfection, viability); uninduced reporter light, run 1, well a: higher = more light from the Notch target reporter without active Notch. Call rule: 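Wells with low control signal or poorly matching duplicates excluded; duplicates averaged; per source plate, z beyond ±2 for induced/control log2 ratio or beyond ±1.8 for induced/uninduced marks a hit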. Calls: active = modifier hit (raised or lowered Notch signal); inactive = not a hit.
In all, the deposit lists about 22,000 reagents; this is a random part of those that have a named target and a result. In the full data, 403 (1.9%) got an active call. 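Unnormalised raw counts per well; ratio z-scores behind the hit calls and whether each hit raises or lowers signal are not deposited.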 Entries without a mark were called inactive. Names joined by + are all predicted targets of the reagent. No sequences are given here. Not stated in the record: the amount of reagent.

Gene	DRSC id	induced reporter light, run 1, well a	induced reporter light, run 1, well b	control promoter light, run 1, well a	control promoter light, run 1, well b	uninduced reporter light, run 1, well a
Dnai2	DRSC10575	1.30e5	1.66e5	1.87e5	1.46e5	6610
jb	DRSC20531	68465	1.09e5	82010	79420	9855
CG4982	DRSC10465	1.32e5	1.16e5	1.81e5	1.60e5	10365
JMJD6	DRSC15787	1.83e5	2.50e5	2.49e5	2.58e5	14992
CG7378	DRSC20041	75965	1.01e5	98715	1.24e5	11105
Glut3	DRSC16681	3.20e5	3.17e5	2.94e5	3.24e5	24705
Srg2 + CG42826	DRSC10681	85455	90025	93990	37630	10535
Srg2 + CG42826	DRSC10682	2.94e5	2.09e5	3.06e5	2.97e5	14550
UGP	DRSC10411	1.21e5	91750	71385	32585	9440
CG15820	DRSC08480	71530	71000	95200	1.01e5	6085
Rpn13	DRSC06379	42515	48625	69000	71415	6120
rb	DRSC18826	2.20e5	2.44e5	3.64e5	3.55e5	16778
CG7201	DRSC10786	2.65e5	2.27e5	3.11e5	2.39e5	6700
hiro	DRSC08564	1.06e5	87345	1.67e5	1.97e5	7800
CG17267	DRSC15207	1.61e5	1.39e5	1.91e5	1.90e5	10432
gammaTub37C	DRSC03535	2.39e5	2.63e5	1.98e5	2.22e5	19820
Ltn1	DRSC11056	1.34e5	1.43e5	1.01e5	1.19e5	10225
Ltn1	DRSC11058	1.89e5	1.15e5	1.33e5	96395	11945
CAH15	DRSC04534	40800	33030	31535	34600	2875
vvl	DRSC11409	2.09e5	2.00e5	3.31e5	2.90e5	15550
HERC2	DRSC20566	74265	75870	1.07e5	88925	9115

4 entries from above, ordered by “control promoter light, run 1, well b”, ascending.
Gene	DRSC id	induced reporter light, run 1, well a	induced reporter light, run 1, well b	control promoter light, run 1, well a	control promoter light, run 1, well b	uninduced reporter light, run 1, well a
CG17267	DRSC15207	1.61e5	1.39e5	1.91e5	1.90e5	10432
hiro	DRSC08564	1.06e5	87345	1.67e5	1.97e5	7800
gammaTub37C	DRSC03535	2.39e5	2.63e5	1.98e5	2.22e5	19820
CG7201	DRSC10786	2.65e5	2.27e5	3.11e5	2.39e5	6700

The results go on.
Gene	DRSC id	induced reporter light, run 1, well a	induced reporter light, run 1, well b	control promoter light, run 1, well a	control promoter light, run 1, well b	uninduced reporter light, run 1, well a
CG13539	DRSC04181	1.55e5	1.80e5	1.85e5	1.92e5	15465
Dscam1	DRSC05047	31240	31850	42885	48150	2185
Dscam1	DRSC05048	36255	32855	46380	53575	2205
Dscam1	DRSC07407	1.53e5	1.57e5	2.45e5	1.94e5	15075
Pfas	DRSC03480	82405	68495	76455	75580	5240
l(2)05714	DRSC03118	95770	86175	95330	89425	8535
CG14985	DRSC08078	1.96e5	1.92e5	1.83e5	2.24e5	12080
CG14985	DRSC08443	1.37e5	1.22e5	1.64e5	1.47e5	6820
CG7523	DRSC16254	27135	32685	27685	27075	3075
CG12895	DRSC06210	1.68e5	2.01e5	2.47e5	1.93e5	15875
Mpv17	DRSC17198	1.12e5	1.08e5	2.06e5	2.02e5	8705
Syx5	DRSC03432	1.73e5	1.71e5	1.62e5	1.48e5	12210
speck	DRSC04608	1.63e5	1.53e5	1.36e5	1.39e5	13810
obst-I	DRSC08339	76655	71945	1.21e5	1.75e5	5870
CG32651	DRSC18941	88720	91580	93685	66980	5570
Uro	DRSC03469	1.58e5	1.97e5	1.43e5	1.30e5	26525
CG5199	DRSC11770	1.38e5	1.48e5	1.54e5	1.25e5	8295
isoQC	DRSC11790	1.32e5	1.22e5	1.30e5	1.02e5	17155
Prosalpha4T1	DRSC16800	1.48e5	1.34e5	1.70e5	1.62e5	8890
CG4733	DRSC15634	1.94e5	1.54e5	1.69e5	1.74e5	15470
Or94a	DRSC16772	1.62e5	1.62e5	2.10e5	2.27e5	14270
CG4770	DRSC15639	2.26e5	1.87e5	2.12e5	2.41e5	18840
CG1418	DRSC06447	1.91e5	1.90e5	2.99e5	2.54e5	17455
Mal-A3	DRSC07462	2.18e5	1.75e5	2.21e5	1.80e5	17665
FER	DRSC12735	1.82e5	1.73e5	1.87e5	2.09e5	13220
FER	DRSC16673	61575	70920	74680	53250	3795
CG34054	DRSC05277	2.04e5	1.95e5	3.02e5	3.07e5	21250
CG34188	DRSC05549	1.62e5	1.71e5	2.74e5	2.58e5	18290
AOX1	DRSC15339	1.62e5	1.47e5	1.17e5	1.16e5	11938
